Test results: publication doi:10.1101/806364
No constants are given. Whether binding was seen depends on the method and setting. Some entries that bind do so weakly or less than the wild type.

The chains behind the UniProt entries cited, without tags or fusion partners.
UniProt P05198: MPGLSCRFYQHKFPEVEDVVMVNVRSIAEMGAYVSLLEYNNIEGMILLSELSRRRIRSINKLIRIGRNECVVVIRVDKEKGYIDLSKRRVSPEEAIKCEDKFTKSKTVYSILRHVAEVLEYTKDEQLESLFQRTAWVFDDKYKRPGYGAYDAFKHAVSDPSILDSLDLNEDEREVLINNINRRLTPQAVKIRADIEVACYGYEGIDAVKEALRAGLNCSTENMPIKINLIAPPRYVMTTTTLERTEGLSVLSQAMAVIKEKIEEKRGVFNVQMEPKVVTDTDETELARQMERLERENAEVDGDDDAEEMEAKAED
UniProt P55884: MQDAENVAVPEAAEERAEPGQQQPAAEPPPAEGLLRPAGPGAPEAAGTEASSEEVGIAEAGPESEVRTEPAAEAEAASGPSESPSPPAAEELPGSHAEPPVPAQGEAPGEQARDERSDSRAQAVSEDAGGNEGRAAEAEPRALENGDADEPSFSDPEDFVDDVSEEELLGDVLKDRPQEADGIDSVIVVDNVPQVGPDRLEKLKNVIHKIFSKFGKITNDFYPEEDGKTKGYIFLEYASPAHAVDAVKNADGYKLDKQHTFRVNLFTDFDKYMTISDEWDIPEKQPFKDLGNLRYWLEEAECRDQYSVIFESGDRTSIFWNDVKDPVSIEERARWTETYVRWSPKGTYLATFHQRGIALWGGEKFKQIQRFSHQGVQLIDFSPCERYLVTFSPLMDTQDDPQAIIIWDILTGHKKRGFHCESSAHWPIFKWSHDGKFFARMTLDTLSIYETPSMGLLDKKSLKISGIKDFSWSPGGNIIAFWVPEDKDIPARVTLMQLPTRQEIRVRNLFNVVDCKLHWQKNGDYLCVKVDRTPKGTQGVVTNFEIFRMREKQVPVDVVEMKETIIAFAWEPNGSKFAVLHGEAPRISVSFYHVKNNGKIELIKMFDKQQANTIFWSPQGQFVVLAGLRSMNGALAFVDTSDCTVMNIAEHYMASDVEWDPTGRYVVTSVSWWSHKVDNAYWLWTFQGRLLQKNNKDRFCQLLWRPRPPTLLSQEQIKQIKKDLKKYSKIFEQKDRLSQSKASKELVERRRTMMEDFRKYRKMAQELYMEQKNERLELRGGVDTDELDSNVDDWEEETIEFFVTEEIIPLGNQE
UniProt P06730: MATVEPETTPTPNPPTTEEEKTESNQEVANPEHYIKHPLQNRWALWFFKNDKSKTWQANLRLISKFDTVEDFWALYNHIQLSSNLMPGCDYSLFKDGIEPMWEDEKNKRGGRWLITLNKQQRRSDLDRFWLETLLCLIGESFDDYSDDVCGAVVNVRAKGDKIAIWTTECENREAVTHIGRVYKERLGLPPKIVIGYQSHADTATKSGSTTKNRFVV

Columns and labels:
Experiment in all cases: selective 80S ribosome footprinting
[1] = target: eIF2S1 (human (endogenous in HeLa)) (UniProt P05198)
[2] = target: eIF3B (human (endogenous in HeLa)) (UniProt P55884)
[3] = target: eIF4E (human (endogenous in HeLa)) (UniProt P06730)

For “eIF3A (nascent chain on translating 80S ribosomes) (from UniProt Q14152-1 1-1382)”, the binding [1] was “binds”.

With “eIF4G1 (nascent chain on translating 80S ribosomes) (from UniProt Q04637-1 1-1599)” the binding [2] was “binds”.

B1: eIF4ENIF1 (nascent chain on translating 80S ribosomes) (protein, UniProt Q9NRA8-1 1-985)
chain: MDRRSMGETESGDAFLDLKKPPASKCPHRYTKEELLDIKELPHSKQRPSCLSEKYDSDGVWDPEKWHASLYPASGRSSPVESLKKELDTDRPSLVRRIVDPRERVKEDDLDVVLSPQRRSFGGGCHVTAAVSSRRSGSPLEKDSDGLRLLGGRRIGSGRIISARTFEKDHRLSDKDLRDLRDRDRERDFKDKRFRREFGDSKRVFGERRRNDSYTEEEPEWFSAGPTSQSETIELTGFDDKILEEDHKGRKRTRRRTASVKEGIVECNGGVAEEDEVEVILAQEPAADQEVPRDAVLPEQSPGDFDFNEFFNLDKVPCLASMIEDVLGEGSVSASRFSRWFSNPSRSGSRSSSLGSTPHEELERLAGLEQAILSPGQNSGNYFAPIPLEDHAENKVDILEMLQKAKVDLKPLLSSLSANKEKLKESSHSGVVLSVEEVEAGLKGLKVDQQVKNSTPFMAEHLEETLSAVTNNRQLKKDGDMTAFNKLVSTMKASGTLPSQPKVSRNLESHLMSPAEIPGQPVPKNILQELLGQPVQRPASSNLLSGLMGSLEPTTSLLGQRAPSPPLSQVFQTRAASADYLRPRIPSPIGFTPGPQQLLGDPFQGMRKPMSPITAQMSQLELQQAALEGLALPHDLAVQAANFYQPGFGKPQVDRTRDGFRNRQQRVTKSPAPVHRGNSSSPAPAASITSMLSPSFTPTSVIRKMYESKEKSKEEPASGKAALGDSKEDTQKASEENLLSSSSVPSADRDSSPTTNSKLSALQRSSCSTPLSQANRYTKEQDYRPKATGRKTPTLASPVPTTPFLRPVHQVPLVPHVPMVRPAHQLHPGLVQRMLAQGVHPQHLPSLLQTGVLPPGMDLSHLQGISGPILGQPFYPLPAASHPLLNPRPGTPLHLAMVQQQLQRSVLHPPGSGSHAAAVSVQTTPQNVPSRSGLPHMHSQLEHRPSQRSSSPVGLAKWFGSDVLQQPLPSMPAKVISVDELEYRQ
In the case of B1, the binding [3] is reported as “binds”.
